Source: PMC9585911
No constants are given. Whether binding was seen depends on the method and setting. In cells and extracts the contact can be indirect. Here binding means that the protein was enriched with, or labelled near, the bait; the list need not be complete.

Each substance was assayed against Strep-tagged Nsp8 of SARS-CoV-2 (SARS-CoV-2) (UniProt P0DTD1) (assay: affinity purification with mass spectrometry).
For EXOSC9 (from UniProt Q06265 1-439), the binding was “binds”.
With EXOSC1 (from UniProt Q9Y3B2 1-195) the binding was “binds”.
In the case of EXOSC7 (from UniProt Q15024 1-291), the binding is reported as “binds”.
With EXOSC6 (from UniProt Q5RKV6 1-272) the binding was “binds”.
EXOSC2 (from UniProt Q13868 1-293) was tested, and the binding was “binds”.
In the case of EXOSC3 (from UniProt Q9NQT5 1-275), the binding is reported as “binds”.
With EXOSC5 (from UniProt Q9NQT4 1-235) the binding was “binds”.
